We go through two molecules from PMC5982836.

The target of test [1] is T1, Myc-Mre11 (Drosophila Mre11) (D. melanogaster) (UniProt Q9XYZ4).
T1 sequence: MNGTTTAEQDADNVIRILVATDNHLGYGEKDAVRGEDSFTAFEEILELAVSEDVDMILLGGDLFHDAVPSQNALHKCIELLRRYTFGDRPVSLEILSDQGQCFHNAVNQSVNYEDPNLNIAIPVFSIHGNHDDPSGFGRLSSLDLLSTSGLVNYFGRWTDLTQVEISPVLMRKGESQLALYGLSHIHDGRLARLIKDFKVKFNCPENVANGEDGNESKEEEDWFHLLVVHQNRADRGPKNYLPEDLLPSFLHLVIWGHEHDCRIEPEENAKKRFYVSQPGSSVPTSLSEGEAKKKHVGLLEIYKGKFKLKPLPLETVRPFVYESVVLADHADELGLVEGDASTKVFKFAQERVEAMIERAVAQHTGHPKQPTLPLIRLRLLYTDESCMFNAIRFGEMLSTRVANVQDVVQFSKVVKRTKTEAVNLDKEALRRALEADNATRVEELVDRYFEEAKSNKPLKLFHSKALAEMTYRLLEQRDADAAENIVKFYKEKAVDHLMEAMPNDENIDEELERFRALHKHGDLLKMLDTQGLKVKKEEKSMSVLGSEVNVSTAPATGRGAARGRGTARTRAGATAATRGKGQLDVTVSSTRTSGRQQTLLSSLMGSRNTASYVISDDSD
Put plainly: co-IP; DART1-V5 and Myc-Mre11 or Myc-Mre11GARΔ co-transfected into S2 cells for 24 h at 25°; lysis in 20 mM Tris-HCl pH 7.5, 150 mM NaCl, 1% Triton X-100; IP with V5 or Myc antibody, Protein-G beads at 4°; washed 4 times with 50 mM HEPES pH 7.3, 250 mM NaCl, 0.1% NP40.

Test [2] addresses DART1-V5 (Drosophila arginine methyltransferase 1) (D. melanogaster). Described as above.

Results are given in words; binding and its absence hold for the method and conditions named. Binding seen in cells or lysates may run through a third protein. Binding can be weak; no strength is given. Tags and fused reporters may be left off the sequences shown.

As to “DART1-V5 (Drosophila arginine methyltransferase 1) (D. melanogaster) (enzyme)”, in test [1], the binding entry is recorded as “binds”.

B1: Myc-Mre11 (Drosophila Mre11) (protein, UniProt Q9XYZ4 1-620)
chain: MNGTTTAEQDADNVIRILVATDNHLGYGEKDAVRGEDSFTAFEEILELAVSEDVDMILLGGDLFHDAVPSQNALHKCIELLRRYTFGDRPVSLEILSDQGQCFHNAVNQSVNYEDPNLNIAIPVFSIHGNHDDPSGFGRLSSLDLLSTSGLVNYFGRWTDLTQVEISPVLMRKGESQLALYGLSHIHDGRLARLIKDFKVKFNCPENVANGEDGNESKEEEDWFHLLVVHQNRADRGPKNYLPEDLLPSFLHLVIWGHEHDCRIEPEENAKKRFYVSQPGSSVPTSLSEGEAKKKHVGLLEIYKGKFKLKPLPLETVRPFVYESVVLADHADELGLVEGDASTKVFKFAQERVEAMIERAVAQHTGHPKQPTLPLIRLRLLYTDESCMFNAIRFGEMLSTRVANVQDVVQFSKVVKRTKTEAVNLDKEALRRALEADNATRVEELVDRYFEEAKSNKPLKLFHSKALAEMTYRLLEQRDADAAENIVKFYKEKAVDHLMEAMPNDENIDEELERFRALHKHGDLLKMLDTQGLKVKKEEKSMSVLGSEVNVSTAPATGRGAARGRGTARTRAGATAATRGKGQLDVTVSSTRTSGRQQTLLSSLMGSRNTASYVISDDSD
As for B1, in test [2], the binding result is “binds”.
